Experimental data as given in US20150051372 (published 2015).

Test: general procedure: Fmoc solid-phase peptide synthesis
Settings: for step yield / final purity (method not given): purification step; for step yield: overall yield of purification; for crude purity (method not given): whole synthesis

## liraglutide
Run 1
  step yield: 64.4%
  final purity (method not given): 98.6%
  crude purity (method not given): 50%
Run 2
  step yield: 61.3%
  final purity (method not given): 98.4%
  crude purity (method not given): 60%
Run 3
  step yield: 61.1%
  final purity (method not given): 98.7%
  crude purity (method not given): 58%
Run 4
  step yield: 61.3%
  final purity (method not given): 98.4%
  crude purity (method not given): 53%
Run 5
  step yield: 62.9%
  final purity (method not given): 98.2%
  crude purity (method not given): 56%
